Laboratory results reported in publication PMC12746146.
Construct, isoform or probe ends are uncertain for at least one entry. At least one result comes from cells or an extract, where the contact may be indirect. A weaker result is weaker than the reference pair of the same experiment.

By UniProt entry, the sequences of proteins in these tests, tags left out. Residues count along the entry.
UniProt Q13308, 31-1070: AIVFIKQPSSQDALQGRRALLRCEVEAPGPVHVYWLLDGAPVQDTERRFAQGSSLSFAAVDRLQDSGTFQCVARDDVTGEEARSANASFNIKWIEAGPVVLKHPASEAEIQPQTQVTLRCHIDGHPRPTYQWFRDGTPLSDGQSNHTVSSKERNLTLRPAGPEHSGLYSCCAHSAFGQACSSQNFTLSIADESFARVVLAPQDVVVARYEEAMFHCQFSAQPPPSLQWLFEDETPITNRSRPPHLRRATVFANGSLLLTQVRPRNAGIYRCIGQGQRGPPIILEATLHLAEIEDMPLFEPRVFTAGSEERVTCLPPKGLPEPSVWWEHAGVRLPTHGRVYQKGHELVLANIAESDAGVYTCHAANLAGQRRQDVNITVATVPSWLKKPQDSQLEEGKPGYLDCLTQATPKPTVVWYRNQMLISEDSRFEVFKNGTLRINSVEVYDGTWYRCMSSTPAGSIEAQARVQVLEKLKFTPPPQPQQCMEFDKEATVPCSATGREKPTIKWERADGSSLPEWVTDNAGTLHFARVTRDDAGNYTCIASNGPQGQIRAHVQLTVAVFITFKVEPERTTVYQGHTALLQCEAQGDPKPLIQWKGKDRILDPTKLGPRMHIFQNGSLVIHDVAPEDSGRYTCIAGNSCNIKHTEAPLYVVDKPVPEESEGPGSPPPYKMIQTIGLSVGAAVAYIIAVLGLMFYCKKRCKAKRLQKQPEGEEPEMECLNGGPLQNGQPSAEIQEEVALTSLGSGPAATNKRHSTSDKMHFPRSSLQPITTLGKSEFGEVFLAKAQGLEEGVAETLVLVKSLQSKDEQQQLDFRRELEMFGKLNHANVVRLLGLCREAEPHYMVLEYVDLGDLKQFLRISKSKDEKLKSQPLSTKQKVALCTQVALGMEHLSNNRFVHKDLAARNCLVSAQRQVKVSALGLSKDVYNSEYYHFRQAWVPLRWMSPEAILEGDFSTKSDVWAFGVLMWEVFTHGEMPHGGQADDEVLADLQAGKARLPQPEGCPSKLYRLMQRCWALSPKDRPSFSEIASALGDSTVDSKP

Target: PTK7 (on HCT-8 cells) (UniProt Q13308)
Assay: cell binding with single-cell sequencing read-out (bound oligo counts)
Conditions: Ion-seq: 1.0x10^6 cells washed, protein on the cell surface, single-stranded DNA

Sequence	binding result (counts lower than aptamer group)	binding result (200 nM aptamer)
TTGTCTTCCTAAGACCGCTTGGCCTCCGACTTAAAACCTAGCTGCTGCGGCTGCATACTGTACTGTCGAGAAATAGAAAAAAAAAAAAAAAAAAAAAAAAAA [Scramble strand]	binds more weakly	
TTGTCTTCCTAAGACCGCTTGGCCTCCGACTTAAAATCTAACTGCTGCGCCGCCGGGAAAATACTGTACGGTTAGAAAAAAAAAAAAAAAAAAAAAAAAAA [Sgc8c-oligo]		binds
